Results deposited as PubChem BioAssay AID1259308 (NCATS, 2017)

Assay: 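Knock-downs that increase output of a recombinant reporter protein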 (primary screen)
System: human HEK293 embryonic kidney cells stably expressing firefly luciferase (HEK-CMV-Luc2-Hygro)
Reagents: single siRNA against human genes, 0.8 pmol siRNA per well
Duration: 72 h
Measured: 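Luciferase light (ONE-Glo) measured on one replicate plate set and viability (CellTiter-Glo) on the other, scaled to a negative control siRNA, with robust z-scores and luciferase per cell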
Direction: total luciferase, z-score and total luciferase, % of control: higher = more reporter protein produced; luciferase per cell, z-score: higher = more reporter output per viable cell; viable cells, % of control: higher = more viable cells
Rule for the call: 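Active when the median/MAD z-score for overall luciferase is greater than 3; a gene was taken forward for validation with new siRNAs if at least two of its three siRNAs passed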
Calls: active = raised luciferase; inactive = no rise
Shown is one part, drawn at random, of about 59,000 reagents tested. Over the whole deposit, about 1,510 (2.6%) are marked active. 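Calls use total luciferase alone and ignore viability, so some active siRNAs may act by altering cell number.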 Reagents against one gene are numbered here.

| gene | reagent | total luciferase, z-score | total luciferase, % of control | luciferase per cell, z-score | viable cells, % of control | call |
| --- | --- | --- | --- | --- | --- | --- |
| MSL3 (MSL complex subunit 3) | 1 | -0.962 | 62.8 | 0.593 | 60 | inactive |
| MSL3 (MSL complex subunit 3) | 2 | 0.328 | 88.4 | 0.0679 | 97.1 | inactive |
| MSL3 (MSL complex subunit 3) | 3 | -0.615 | 69.7 | 0.573 | 66.9 | inactive |
| PHETA1 (PH domain containing endocytic trafficking adaptor 1) | 1 | -1.25 | 57 | -0.164 | 66.5 | inactive |
| PHETA1 (PH domain containing endocytic trafficking adaptor 1) | 2 | 1.24 | 106 | 1.12 | 88.6 | inactive |
| PHETA1 (PH domain containing endocytic trafficking adaptor 1) | 3 | -0.852 | 64.9 | -0.478 | 82.3 | inactive |
| UQCRH (ubiquinol-cytochrome c reductase hinge protein) | 1 | -0.537 | 71.2 | -1.32 | 113 | inactive |
| UQCRH (ubiquinol-cytochrome c reductase hinge protein) | 2 | -0.226 | 77.4 | -0.418 | 96.5 | inactive |
| UQCRH (ubiquinol-cytochrome c reductase hinge protein) | 3 | 0.145 | 84.8 | -0.656 | 113 | inactive |
| NACA3P (NACA family member 3, pseudogene) | 1 | -1.08 | 60.4 | 2.09 | 39 | inactive |
| NACA3P (NACA family member 3, pseudogene) | 2 | 1.75 | 117 | 2 | 76.9 | inactive |
| NACA3P (NACA family member 3, pseudogene) | 3 | -0.0722 | 80.5 | -0.53 | 103 | inactive |
| TBX5-AS1 (TBX5 antisense RNA 1) | 1 | -1.98 | 42.5 | -2.69 | 96.4 | inactive |
| TBX5-AS1 (TBX5 antisense RNA 1) | 2 | 0.173 | 85.3 | 0.23 | 89.7 | inactive |
| TBX5-AS1 (TBX5 antisense RNA 1) | 3 | -1.37 | 54.6 | -0.658 | 72.5 | inactive |
| OR13C5 (olfactory receptor family 13 subfamily C member 5) | 1 | 0.154 | 84.9 | 0.238 | 89.2 | inactive |
| OR13C5 (olfactory receptor family 13 subfamily C member 5) | 2 | 0.315 | 88.2 | 0.481 | 86.8 | inactive |
| OR13C5 (olfactory receptor family 13 subfamily C member 5) | 3 | -0.535 | 71.3 | -0.748 | 97 | inactive |
| SUB1P1 (SUB1 pseudogene 1) | 1 | -0.913 | 63.7 | -1.03 | 93.4 | inactive |
| SUB1P1 (SUB1 pseudogene 1) | 2 | -0.519 | 71.6 | -0.349 | 87.7 | inactive |
| SUB1P1 (SUB1 pseudogene 1) | 3 | 0.655 | 94.9 | 0.656 | 89.3 | inactive |
| PRRT4 (proline rich transmembrane protein 4) | 1 | -0.751 | 66.9 | 1.48 | 50.7 | inactive |
| PRRT4 (proline rich transmembrane protein 4) | 2 | 0.934 | 100 | 0.587 | 96.2 | inactive |
| PRRT4 (proline rich transmembrane protein 4) | 3 | 1.64 | 114 | 1.47 | 86.9 | inactive |
| C1orf94 (chromosome 1 open reading frame 94) | 1 | -0.141 | 79.1 | 1.08 | 66.4 | inactive |
| C1orf94 (chromosome 1 open reading frame 94) | 2 | 0.132 | 84.5 | 0.137 | 91.1 | inactive |
| C1orf94 (chromosome 1 open reading frame 94) | 3 | 0.76 | 97 | 0.833 | 87 | inactive |
| GCC1 (GRIP and coiled-coil domain containing 1) | 1 | 0.887 | 99.5 | 0.251 | 104 | inactive |
| GCC1 (GRIP and coiled-coil domain containing 1) | 2 | 0.48 | 91.4 | -0.1 | 105 | inactive |
| GCC1 (GRIP and coiled-coil domain containing 1) | 3 | -0.833 | 65.3 | 1.06 | 55.2 | inactive |
| XCR1 (X-C motif chemokine receptor 1) | 1 | 0.581 | 93.4 | 0.0245 | 104 | inactive |
| XCR1 (X-C motif chemokine receptor 1) | 2 | -1.68 | 48.4 | -1.93 | 89.8 | inactive |
| XCR1 (X-C motif chemokine receptor 1) | 3 | 1.77 | 117 | 1.2 | 95.6 | inactive |
| C11orf96 (chromosome 11 open reading frame 96) | 1 | 1.41 | 110 | 1.91 | 74.3 | inactive |
| C11orf96 (chromosome 11 open reading frame 96) | 2 | -1.11 | 59.8 | -1.29 | 93.9 | inactive |
| C11orf96 (chromosome 11 open reading frame 96) | 3 | -1.35 | 55.1 | -0.638 | 72.9 | inactive |
| LOXL2 (lysyl oxidase like 2) | 1 | 0.0746 | 83.4 | -0.0198 | 93.6 | inactive |
| LOXL2 (lysyl oxidase like 2) | 2 | -0.901 | 64 | -0.0155 | 71.8 | inactive |
| LOXL2 (lysyl oxidase like 2) | 3 | 1.08 | 103 | 1.16 | 85 | inactive |

3 neighbouring records already listed, for reference:
| gene | reagent | total luciferase, z-score | total luciferase, % of control | luciferase per cell, z-score | viable cells, % of control | call |
| --- | --- | --- | --- | --- | --- | --- |
| C11orf96 (chromosome 11 open reading frame 96) | 2 | -1.11 | 59.8 | -1.29 | 93.9 | inactive |
| C11orf96 (chromosome 11 open reading frame 96) | 3 | -1.35 | 55.1 | -0.638 | 72.9 | inactive |
| LOXL2 (lysyl oxidase like 2) | 1 | 0.0746 | 83.4 | -0.0198 | 93.6 | inactive |
